# Assay results: PubChem BioAssay AID720504 (National Center for Advancing Translational Sciences (NCATS), 2013)
# The chains behind the UniProt entries cited, without tags or fusion partners.
# UniProt P53350, whole entry, looked up: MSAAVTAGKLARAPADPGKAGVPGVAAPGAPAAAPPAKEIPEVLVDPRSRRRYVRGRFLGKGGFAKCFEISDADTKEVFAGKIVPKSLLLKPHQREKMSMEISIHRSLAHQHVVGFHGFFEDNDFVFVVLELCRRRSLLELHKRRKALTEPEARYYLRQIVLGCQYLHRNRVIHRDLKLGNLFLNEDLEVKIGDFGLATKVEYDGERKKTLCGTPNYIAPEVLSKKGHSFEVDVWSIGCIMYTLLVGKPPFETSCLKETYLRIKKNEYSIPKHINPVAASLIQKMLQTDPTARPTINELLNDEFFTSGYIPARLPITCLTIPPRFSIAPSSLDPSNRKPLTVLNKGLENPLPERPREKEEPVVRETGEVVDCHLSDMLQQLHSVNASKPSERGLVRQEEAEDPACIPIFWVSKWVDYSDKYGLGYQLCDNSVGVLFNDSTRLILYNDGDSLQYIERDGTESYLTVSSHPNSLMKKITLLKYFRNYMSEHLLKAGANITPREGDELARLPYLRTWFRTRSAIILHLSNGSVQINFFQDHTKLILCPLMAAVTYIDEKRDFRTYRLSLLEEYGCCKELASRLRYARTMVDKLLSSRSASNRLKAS
# Hit rate of the full screen: of about 360,000 compounds, about 10,000 (2.8%) were called active. This list was built around the results that the source calls inconclusive (neither active nor inactive); the mix of calls is not that of the screen. Calls follow the shape of the dose curve; as a rule, active = well fitted inhibition curve with a large enough effect; inconclusive = small, poorly fitted or top-dose-only effect; inactive = flat fitted curve, though single readings scatter. A potency beside an inconclusive call is a rough fit, not a confirmed value. The source holds several records for some structures; these can differ, active in one and inactive in another.
# Biological target: Serine/threonine-protein kinase PLK1 (Homo sapiens) (UniProt P53350)
# Experiment: qHTS for Inhibitors of PLK1-PDB (polo-like kinase 1 - polo-box domain): Primary Screen; also: nearly all actives have a fitted effect of over 65% in size; as to max response, negative = inhibition: series mostly up to about 57 µM
# Conditions: Plk1 PBD binding of FITC phosphopeptide, fluorescence polarization
# % is scaled to controls: 0 for no effect and ±100 for the full control effect; potency is read from the fitted curve at half-maximal effect.
Structure (SMILES),"max response, negative = inhibition",Potency
COc1ccc(NC2=NCC(Cc3ccc(Br)cc3)S2)cc1 (stereo unspecified),inactive: -15.4%,
Cc1ccc2nc(-c3ccccc3)c(Cc3ccccc3C(F)(F)F)n2c1,inactive: 1.71%,
CCn1cc(C(=O)NCc2ccc(OC)cc2)c(=O)c2ccc(C)nc21,inactive: -5.5%,
Cc1cccc(N2CCN(C(=O)CCS(=O)(=O)c3ccc(Br)cc3)CC2C)c1 (stereo unspecified),,"inconclusive: 21.2 µM [inhibitor, partial curve]"
COc1ccc(CN2C[C@H](C)[C@@H](CC(=O)NCc3ccccc3)C2=O)cc1,,"inconclusive: 37.7 µM [inhibitor, single point]"
CCCN(CC(=O)Nc1ccccc1OC)C(=O)c1ccccn1,inactive: -2.54%,
COc1ccccc1/C=C(\C#N)C(=O)c1cccn1C,inconclusive: -32.3% [inhibitor],
O=C(NCC1CC1)Nc1ccc(Cl)cc1,inactive: -8.4%,
CCCN=C(C)c1c(-c2ccccc2)[nH]n(-c2nc3ccccc3s2)c1=O,inactive: -10.9%,
N#Cc1cc2c(nc1SCC(=O)N1CCOCC1)CCCCC2,,"inconclusive: 29.9 µM [inhibitor, partial curve]"
c1ccc(CN(Cc2ccco2)C(c2ccncc2)c2nnnn2C2CCCC2)cc1 (stereo unspecified),,"inconclusive: 37.7 µM [inhibitor, single point]"
O=C(O)C(C(=O)/C=C/c1ccco1)=C1SCCS1,,"inconclusive: 29.9 µM [inhibitor, partial curve]"
Cc1ccc(NC(=O)CCS(=O)(=O)c2ccc(Br)cc2)nc1,,active: 11.9 µM
O=C(Nc1ccc(Cl)cc1)N1CCN(c2ccccc2)CC1,,active: 26.7 µM
CCOC(=O)C[C@H]1c2ccc(C(F)(F)F)cc2S(=O)(=O)N1c1cccc(OC)c1,,"inconclusive: 37.7 µM [inhibitor, single point]"
O=C(NCc1ccc2c(c1)OCO2)C1CCCN(S(=O)(=O)c2cccc3nonc23)C1 (stereo unspecified),,active: 26.7 µM
COc1cc(C(=O)Nc2nnc(C(C)(C)C)s2)c([N+](=O)[O-])cc1OC,,"inconclusive: 11.9 µM [inhibitor, partial curve]"
CC1=C(C(=O)OCc2ccccc2)C(c2ccccc2OS(=O)(=O)c2ccc([N+](=O)[O-])cc2)NC(=O)N1CCCC(=O)O (stereo unspecified),inactive: -9.44%,
Cn1c(=O)[nH]c(=O)c2c1[nH]c(=S)n2Cc1ccccc1,,active: 23.8 µM
CC(=NCCc1ccccc1)C1=C(O)CSC1=O,,active: 11.9 µM
COc1ccc(S(=O)(=O)NCC2CCCO2)c(Cl)c1Cl (stereo unspecified),,"inconclusive: 26.7 µM [inhibitor, single point]"

# One compound at a time, from the list above:
# c1ccc(CN(Cc2ccco2)C(c2ccncc2)c2nnnn2C2CCCC2)cc1 (stereo unspecified) in the list: Potency: inconclusive: 37.7 µM [inhibitor, single point]
# CCCN(CC(=O)Nc1ccccc1OC)C(=O)c1ccccn1 in the list: max response, negative = inhibition: inactive: -2.54%
